Measurements published in paper PMC4775225, “Bromodomain inhibition of the transcriptional coactivators CBP/EP300 as a therapeutic strategy to target the IRF4 network in multiple myeloma” (eLife, 2016).

Tested on: LP-1 cells
Assay: RNA sequencing and Gene Set Enrichment Analysis
Format: cell-based, human
Conditions: 6 hr

SMILES | fraction of MYC gene signatures significantly enriched (LP-1, CPI203 0.25 μM) | fraction of multiple myeloma and IRF4 gene signatures significantly enriched (p<0.05) (LP-1, CPI203 0.25 μM) | genes differentially expressed at least 1.5 fold (LP-1, CPI203 0.25 μM, of 20299 mapped genes) [genes] | fraction of MYC gene signatures significantly enriched (LP-1, SGC-CBP30 2.5 μM) | fraction of multiple myeloma and IRF4 gene signatures significantly enriched (p<0.05) (LP-1, SGC-CBP30 2.5 μM)
Cc1sc2c(c1C)C(c1ccc(Cl)cc1)=N[C@@H](CC(N)=O)c1nnc(C)n1-2 [CPI203] | 26/51 | 9/58 | 2959 |  | 
COc1ccc(CCc2nc3cc(-c4c(C)noc4C)ccc3n2C[C@H](C)N2CCOCC2)cc1Cl [SGC-CBP30] |  |  |  | 15/51 | 26/58
